Consider 52 compounds from PubChem BioAssay AID651804 (National Center for Advancing Translational Sciences (NCATS), 2012).

Sequences of proteins named here, by UniProt entry; tags and fusion partners are left off. A change or cut given only in a name is not applied to a line headed by its entry.
UniProt P11308: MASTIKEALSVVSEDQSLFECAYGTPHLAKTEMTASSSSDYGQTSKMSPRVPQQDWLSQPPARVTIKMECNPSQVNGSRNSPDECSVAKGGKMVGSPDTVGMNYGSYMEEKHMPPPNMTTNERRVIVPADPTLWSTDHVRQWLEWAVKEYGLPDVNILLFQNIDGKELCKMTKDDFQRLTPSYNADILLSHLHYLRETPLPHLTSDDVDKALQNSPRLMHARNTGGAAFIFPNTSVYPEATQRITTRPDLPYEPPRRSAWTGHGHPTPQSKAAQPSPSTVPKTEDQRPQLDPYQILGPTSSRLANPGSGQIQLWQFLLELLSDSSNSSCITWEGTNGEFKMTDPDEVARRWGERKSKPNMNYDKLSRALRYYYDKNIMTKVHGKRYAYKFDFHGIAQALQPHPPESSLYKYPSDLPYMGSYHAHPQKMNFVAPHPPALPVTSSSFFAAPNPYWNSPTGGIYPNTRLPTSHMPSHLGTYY

SMILES strings stand for the structures. Screen size: about 1,200 compounds; about 20 (2%) were called active. Roughly 23% stayed inconclusive and do not appear here. The call rests on the fitted dose curve; in most records, active means well fitted inhibition curve with a large enough effect; inconclusive means small, poorly fitted or top-dose-only effect; inactive means no such curve, though single readings can be large or run the other way. The list shows a part of the results.

This test deals with Transcriptional regulator ERG (Homo sapiens) (UniProt P11308). Put plainly: qHTS for Small Molecule Inhibitors of the ERG Ets/DNA interaction: HTRF assay against cherry picks. The following applies: His-ERG Ets domain with biotin-DNA; series mostly up to 154 µM; activity change, negative = inhibition: at the top concentration. In a few lines: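 Compounds were incubated 10 min at RT with ERG Ets domain and biotinylated DNA (each added as 200 nM solution) in pH 7.5 Tris/KCl/EDTA/DTT buffer. Binding was read as FRET (ex 320, em 615 and 665 nm) between anti-His donor and streptavidin acceptor.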
A general note: qHTS replaces the single test concentration by a dilution series.
With `CCS(=O)(=O)N1CCC(C(=O)OCC(=O)c2ccc(Br)cc2)CC1`, the “activity change, negative = inhibition” value was inactive: 1.49%.

For `Cc1ccccc1-n1c(=O)n(CCc2ccccc2)c(=O)c2[nH]cnc21`, the “activity change, negative = inhibition” value is inactive: -2.33%.

Regarding `O=c1ccc(-c2ccc(S(=O)(=O)Nc3cccc(Br)c3)o2)n[nH]1`, the “activity change, negative = inhibition” value was inactive: -24.7%.

In the case of `C=CCN1C(=O)c2ccc(C(=O)Nc3ccccn3)cc2C1=O`, the “activity change, negative = inhibition” value was inactive: -29.2%.

As to `COc1cc(OC)c(N(C)S(=O)(=O)c2cccc(C(=O)NC(C)C3CC4CCC3C4)c2)cc1Cl` (configuration not stated), the “activity change, negative = inhibition” value is inactive: -14.9%.

As to `Cc1ccc(S(=O)(=O)/N=C(/NC(=S)Nc2c(C)n(C)n(-c3ccccc3)c2=O)c2ccccc2)cc1`, the “activity change, negative = inhibition” value was inactive: -23.4%.

Take `CCCN(CC(=O)Nc1ccc(F)c(F)c1F)C(=O)C1CC(=O)N(Cc2ccccc2)C1` (configuration not stated): the “activity change, negative = inhibition” value was inactive: -22.6%.

Take `COC(=O)Nc1ccc(S(=O)(=O)NNC(=O)c2c(O)c3ccccc3n(C)c2=O)cc1`: the “activity change, negative = inhibition” value is inactive: -6.74%.

As for `O=C(CCN=C1NS(=O)(=O)c2ccccc21)OCc1ccccc1`, the “activity change, negative = inhibition” value is inactive: -3.29%.

As to `Nc1c(C(=O)O)cnn1-c1ccccc1`, the “activity change, negative = inhibition” value was inactive: -28.4%.

For `Cc1ccc(S(=O)(=O)NCC(=O)N(CC(=O)NCC2CCCO2)c2cccc(F)c2)cc1` (configuration not stated), the “activity change, negative = inhibition” value is inactive: -27%.

With `CCN(Cc1ccccc1)C(=O)CN1C(=O)c2ccccc2C1=O`, the “activity change, negative = inhibition” value is inactive: -28.6%.

With `O=C(COc1coc(CN2CCCc3ccccc32)cc1=O)Nc1cccc([N+](=O)[O-])c1`, the “activity change, negative = inhibition” value was inactive: -33%.

With `COC(=O)c1ccccc1NC(=O)c1cc(C2CC2)on1`, the “activity change, negative = inhibition” value was inactive: -14.3%.

As for `CC1=C(C#N)CCC(=O)N1Cc1c(F)cccc1Cl`, the “activity change, negative = inhibition” value was inactive: -12.7%.

Take `Cc1ccc(S(=O)(=O)N2CCC[C@H]2C(=O)NC2CCCCC2)cc1`: the “activity change, negative = inhibition” value was inactive: -19.9%.

Regarding `O=C(NCCCc1ccccc1)C(=O)NCC1OCCN1S(=O)(=O)c1cc(F)ccc1F` (configuration not stated), the “activity change, negative = inhibition” value was inactive: -21.2%.

For `Cc1cccc(-c2oc3ccccc3c2-c2ccc3c(c2)OCO3)c1`, the “activity change, negative = inhibition” value is inactive: -23.8%.

Take `CCCn1c(SCC(=O)Nc2cccc(C(=O)OCC)c2)nnc1-c1ccoc1C`: the “activity change, negative = inhibition” value is inactive: -22.8%.

Regarding `CC(C)=CCOc1ccc2ccc(=O)oc2c1`, the “activity change, negative = inhibition” value is inactive: -25.5%.

For `CC(CCc1ccccc1)NC(=S)NC1CCCCC1` (configuration not stated), the “activity change, negative = inhibition” value was inactive: -11.6%.

For `Cc1ccc(-n2c(CCC(=O)O)ccc2-c2cccs2)cc1Cl`, the “activity change, negative = inhibition” value was inactive: 2.02%.

As for `c1ccc2oc(-c3ccn[nH]3)cc2c1`, the “activity change, negative = inhibition” value was inactive: -12.9%.

`O=C(O)c1ccccc1Nc1cccc(OCc2ccc3ccccc3n2)c1`: the “activity change, negative = inhibition” value is inactive: -19.3%.

For `CCOc1ccc(-c2nnc(NC(=O)Cc3cc(OC)c(OC)c(OC)c3)o2)cc1`, the “activity change, negative = inhibition” value was inactive: -3.5%.

Regarding `CCOC(=O)c1ccc(NC(=S)N2CCSC2c2ccc(OC)cc2)cc1` (configuration not stated), the “activity change, negative = inhibition” value was inactive: -25.1%.

As for `COc1ccc(-c2c/c(=N\c3nc(-c4ccccc4)c(C)s3)c3ccccc3o2)cc1O`, the “activity change, negative = inhibition” value is inactive: -22.7%.

For `O=C(OCCOCCN=C1NS(=O)(=O)c2ccccc21)c1ccccc1Br`, the “activity change, negative = inhibition” value is inactive: -32.5%.

As for `O=C(O)c1ccc(Nc2ncnc3scc(-c4ccccc4)c23)cc1`, the “activity change, negative = inhibition” value was inactive: 20.5%.

On to `CN(C)CCCNc1c2ccccc2nc2ccccc12`, for which the “activity change, negative = inhibition” value was inactive: -88.9%.

Turning to `Cc1ccc(S(=O)(=O)N2[C@@H](c3ccccc3F)C(C(=O)O)=CC[C@H]2c2cccs2)cc1`, the “activity change, negative = inhibition” value was inactive: -24.2%.

Regarding `COc1cccc(CN2CCNC(=O)C2CC(=O)N(Cc2cnn(C)c2)C(C)C)c1` (configuration not stated), the “activity change, negative = inhibition” value is inactive: -30.2%.

Take `O=C(C[C@H]1C/C=C\CC[C@@H](Cc2ccc(F)cc2)C(=O)OC[C@H]2CCCN2C1=O)N[C@H](CO)Cc1ccccc1`: the “activity change, negative = inhibition” value is inactive: -13.8%.

As to `Nc1ccncc1N`, the “activity change, negative = inhibition” value is inactive: 0.849%.

On to `CN1C2CCC1CC(NC(=O)CSCc1ccc(Cl)cc1Cl)C2` (configuration not stated), for which the “activity change, negative = inhibition” value was inactive: -29.4%.

Turning to `CCOC(=O)C1(Cc2ccccc2Cl)CCN(S(=O)(=O)N(C)C)CC1`, the “activity change, negative = inhibition” value was inactive: 3.4%.

With `CCNc1nc(OCC)nc(N2CCC(Cc3ccccc3)CC2)n1`, the “activity change, negative = inhibition” value was inactive: 4.46%.

In the case of `CCCCN1C(N)=NC[C@@H]1CC1CCCCC1`, the “activity change, negative = inhibition” value is inactive: -20.6%.

Take `Cc1ccc(COC(=O)CCN=C2NS(=O)(=O)c3ccccc32)cc1`: the “activity change, negative = inhibition” value was inactive: -23.1%.

In the case of `COc1ccc(C(=O)NCC(=O)N2CCN(C(=O)c3ccco3)CC2)cc1`, the “activity change, negative = inhibition” value is inactive: 7.96%.

In the case of `Cc1ccccc1NC(=O)COc1ccc2oc(=O)cc(C)c2c1`, the “activity change, negative = inhibition” value is inactive: -0.371%.

`CC(C[N+](C)(C)C)OC(N)=O` (configuration not stated): the “activity change, negative = inhibition” value is inactive: -29.3%.

For `Cc1ccc(C(=O)N2CCN(c3ccc(NC(=O)CSc4ccc(Cl)cc4)cc3)CC2)cc1`, the “activity change, negative = inhibition” value is inactive: -5.62%.

As to `Cc1ccc(-c2nnn(CC(=O)N(c3ccccc3)C(C(=O)NCC3CCCO3)c3ccc(F)cc3)n2)o1` (configuration not stated), the “activity change, negative = inhibition” value is inactive: -28%.

Consider `CCOC(=O)N1CCC(NC(=O)c2ccc(CO)c(C(=O)NC3CCN(C(=O)OCC)CC3)c2)CC1`, for which the “activity change, negative = inhibition” value is inactive: -24.2%.

Consider `CNC(=S)N/N=C/c1c(C)nn(-c2ccccc2)c1Cl`, for which the “activity change, negative = inhibition” value was inactive: -37.2%.

As to `Cc1cc(-c2n[nH]c(=S)n2-c2ccc(C)c(C)c2)no1`, the “activity change, negative = inhibition” value was inactive: -9.55%.

In the case of `Cc1ccc(C)c(NC(=O)COC(=O)c2cc(=O)c3ccccc3o2)c1`, the “activity change, negative = inhibition” value was inactive: -41.9%.

For the compound `CC(=O)NC(CC(=O)Nc1nc(-c2ccccc2)c(C(C)=O)s1)c1ccccc1` (configuration not stated), the “activity change, negative = inhibition” value is inactive: -23%.

As for `CN(C)S(=O)(=O)c1ccc(C(=O)Nc2ccc(Cl)cc2)cc1`, the “activity change, negative = inhibition” value is inactive: -10.2%.

Consider `COc1ccc(-c2cc3ncc(C(C)=O)c(C)n3n2)cc1`, for which the “activity change, negative = inhibition” value is inactive: 8.12%.

`OC(CN1CCCCC1)Cn1c2ccccc2c2cc(Br)ccc21` (configuration not stated): the “activity change, negative = inhibition” value was inactive: -1.59%.
